Results reported in the supplement of paper PMC4604168 (melanoma cell lines).
This is one part of the list. Single values are uncertain, as repeats are few or missing.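 The apoptosis fraction was the count of cleaved-PARP antibody-stained nuclei relative to all DNA-stained nuclei, imaged in 1,536-well plates. Screening doses were set so most cells survived, and baseline and induced cleaved-PARP levels vary greatly across cell lines.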

System: A2058
Assay: cleaved PARP positive nuclei fraction relative to DMSO control; melanoma cells; higher = more apoptosis
Settings: library dose: low library concentration; 72 h

Point of comparison: C[C@]1(O)C[C@@H](c2nc(-c3ccc4ccc(-c5ccccc5)nc4c3)c3c(N)nccn32)C1 + O=C(O)C(=O)Nc1sc2c(c1C(=O)O)CCNC2 [TCS401] (first compound 0.4 µM, partner dose 1.66667 µM), “cleaved PARP positive nuclei fraction” value 45.9%. Against it:
- NC1(c2ccc(-c3nc4ccn5c(=O)[nH]nc5c4cc3-c3ccccc3)cc2)CCC1 + CC(C)CCN1c2nc(Nc3cc(F)c(O)c(F)c3)ncc2N(C)C(=O)C1C [BID1870] (first compound 0.4 µM, partner dose 0.2 µM) — higher, 92.8%
- CC(=O)O[C@@]12CO[C@@H]1C[C@H](O)[C@@]1(C)C(=O)[C@H](O)C3=C(C)[C@@H](OC(=O)[C@H](O)[C@@H](NC(=O)OC(C)(C)C)c4ccccc4)C[C@@](O)([C@@H](OC(=O)c4ccccc4)[C@H]21)C3(C)C [Docetaxel] + CCCCCCCCCCCC1=C(O)C(=O)C=C(O)C1=O [Embelin] (first compound 0.0001 µM, partner dose 1.2 µM) — higher, 2510%
- Cn1cnc2c(F)c(Nc3ccc(Br)cc3Cl)c(C(=O)NOCCO)cc21 [selumetinib] + COc1ccc(COc2ccc(Cc3cnc(N)nc3N)cc2OC)cc1 [GW2580] (first compound 0.015 µM, partner dose 1 µM) — higher, 96.3%
- CCN(CC)CCNC(=O)c1c(C)[nH]c(/C=C2\C(=O)Nc3ccc(F)cc32)c1C [sunitinib] + c1cc(-c2cnn3cc(-c4ccc(OCCN5CCCCC5)cc4)cnc23)ccn1 [Dorsomorphin] (first compound 0.4 µM, partner dose 0.4 µM) — higher, 110%
- CC1(C)CCC(c2ccc(Cl)cc2)=C(CN2CCN(c3ccc(C(=O)NS(=O)(=O)c4ccc(N[C@H](CCN5CCOCC5)CSc5ccccc5)c(S(=O)(=O)C(F)(F)F)c4)cc3)CC2)C1 + COc1cc(N2CCC(N3CCN(C)CC3)CC2)ccc1Nc1ncc(Cl)c(Nc2ccccc2S(=O)(=O)C(C)C)n1 [NVP-TAE684] (first compound 0.4 µM, partner dose 0.08 µM) — higher, 52.2%
- Cn1sc(=O)n(Cc2ccccc2)c1=O + CCN(CC)CCCCNc1ncc2cc(-c3cc(OC)cc(OC)c3)c(NC(=O)NC(C)(C)C)nc2n1 [PD173074] (first compound 0.4 µM, partner dose 0.1 µM) — higher, 119%
- CCN(CC)CCNC(=O)c1c(C)[nH]c(/C=C2\C(=O)Nc3ccc(F)cc32)c1C [sunitinib] + CCCCCCCCCCCC1=C(O)C(=O)C=C(O)C1=O [Embelin] (first compound 0.4 µM, partner dose 1.2 µM) — higher, 281%
- CN(c1ncccc1CNc1nc(Nc2ccc3c(c2)CC(=O)N3)ncc1C(F)(F)F)S(C)(=O)=O + COc1ccc(-c2ccc3c(N4CCOCC4)nc(N4C[C@@H](C)O[C@@H](C)C4)nc3n2)cc1CO [KU0063794] (first compound 0.08 µM, partner dose 0.02 µM) — higher, 73.5%
- CCN(CC)CCNC(=O)c1c(C)[nH]c(/C=C2\C(=O)Nc3ccc(F)cc32)c1C [sunitinib] + CCN(CC)CCCCNc1ncc2cc(-c3cc(OC)cc(OC)c3)c(NC(=O)NC(C)(C)C)nc2n1 [PD173074] (first compound 0.4 µM, partner dose 0.1 µM) — higher, 214%
- Cn1cnc2c(F)c(Nc3ccc(Br)cc3Cl)c(C(=O)NOCCO)cc21 [selumetinib] + O=C(Nc1ccccc1)c1cc([N+](=O)[O-])ccc1Cl [GW9662] (first compound 0.015 µM, partner dose 2 µM) — higher, 179%
- C[C@@H](N)c1ccc(C(=O)Nc2ccnc3[nH]ccc23)cc1 + COc1ccc2c(c1)CCC1C2CCC2(C)C(NCCCCCCN3C(=O)C=CC3=O)CCC12 [U73122] (first compound 0.4 µM, partner dose 0.4 µM) — higher, 181%
- CC(=O)O[C@@]12CO[C@@H]1C[C@H](O)[C@@]1(C)C(=O)[C@H](O)C3=C(C)[C@@H](OC(=O)[C@H](O)[C@@H](NC(=O)OC(C)(C)C)c4ccccc4)C[C@@](O)([C@@H](OC(=O)c4ccccc4)[C@H]21)C3(C)C [Docetaxel] + COc1ccc(-c2ccc3c(N4CCOCC4)nc(N4C[C@@H](C)O[C@@H](C)C4)nc3n2)cc1CO [KU0063794] (first compound 0.0001 µM, partner dose 0.02 µM) — higher, 4660%
